The values that follow come from PubChem BioAssay AID1986 (Sanford-Burnham Center for Chemical Genomics, 2009).

About 890 (0.31%) of roughly 290,000 compounds were called active. Rule as the data show it: active = inhibition mostly above about 52% (no sharp cut-off); inactive = mostly below about 76%. The list shows a part of the results, in another mix than the full data.

The assay is described as follows: inhibitors of HIV fusion peptide binding, primary screen, biochemical, uHTS, fluorescence dequenching (AID 1986). The settings on record: cell-free peptide binding, 30 min, at 20 µM, stronger effect = higher value.
Turning to `OCCOCCN1CCN(C(c2ccccc2)c2ccc(Cl)cc2)CC1` (configuration not stated), the inhibition is inactive: 1.4%.
To `CC(C)(C)c1ccc(C(=O)Nc2cccc3ncccc23)cc1` belongs active: 62%.

As a reminder, the inhibition is the change of the read-out against control, counted positive when it falls.
